In paper PMC9594046, “Identification of Histone Peptide Binding Specificity and Small-Molecule Ligands for the TRIM33α and TRIM33β Bromodomains” (ACS Chemical Biology, 2022):

How the values were obtained:
[1] = AlphaScreen TruHits Assay 2 (pre-incubation of donor beads); conditions: values >2 indicate significant assay interference
[2] = AlphaScreen TruHits Assay 1 (pre-incubation of both beads); conditions: values >2 indicate significant assay interference

SMILES | TruHits Assay 2: difference from DMSO average, normalised against standard deviation of DMSO control ([1]; 31.25 µM compound) | TruHits Assay 2: difference from DMSO average, normalised against standard deviation of DMSO control ([1]; 62.5 µM compound) | TruHits Assay 2: difference from DMSO average, normalised against standard deviation of DMSO control ([1]; 125 µM compound) | TruHits Assay 2: difference from DMSO average, normalised against standard deviation of DMSO control ([1]; 250 µM compound) | TruHits Assay 2: difference from DMSO average, normalised against standard deviation of DMSO control ([1]; 500 µM compound) | TruHits Assay 1: difference from DMSO average, normalised against standard deviation of DMSO control ([2]; 31.25 µM compound) | TruHits Assay 1: difference from DMSO average, normalised against standard deviation of DMSO control ([2]; 62.5 µM compound) | TruHits Assay 1: difference from DMSO average, normalised against standard deviation of DMSO control ([2]; 125 µM compound) | TruHits Assay 1: difference from DMSO average, normalised against standard deviation of DMSO control ([2]; 250 µM compound) | TruHits Assay 1: difference from DMSO average, normalised against standard deviation of DMSO control ([2]; 500 µM compound)
Cc1nc[nH]c1-c1nc2ccccn2c1NCCN1CCOCC1 [Compound 4] | 2.074 | 2.893 | 3.158 | 3.004 | 3.662 | 1.973 | 2.577 | 3.961 | 2.642 | 4.385
Cc1nc[nH]c1-c1nc2ccccn2c1NC1CCCCC1 [Compound 5] | 3.844 | 3.942 | 4.025 | 4.042 | 4.061 | 40.87 | 42.33 | 42.97 | 43.37 | 43.64
COc1ccc(Nc2c(-c3[nH]cnc3C)nc3ccc(Br)cn23)cc1 [Compound 3] | 3.997 | 4.036 | 4.06 | 4.063 | 4.064 | 42.87 | 43.34 | 43.59 | 43.68 | 43.68
COC(=O)c1ccc2nc(-c3cnc(C)[nH]3)c(NC3CCCCC3)n2c1 [Compound 6] | 2.09 | 2.481 | 3.088 | 3.547 | 3.836 | 21.01 | 19.76 | 23.8 | 29.86 | 35.27
CC(C)(C)Nc1c(-c2c[nH]c3ncccc23)nc2ccccn12 [Compound 7] | 0.7919 | 1.272 | 1.654 | 2.277 | 3.225 | 2.874 | 8.919 | 17.81 | 25.27 | 32.73
